PubChem BioAssay AID1259297 – Sanger Institute, 2017

Screen: 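siRNA screen across the kinome seeking drug partners in cells of colorectal cancer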 (primary screen)
Cell system: human RCM1 colorectal cancer cell line
Knock-down reagent: siRNA pool against human genes
Conditions: separate arms: DMSO vehicle, or one anchor drug at a mild dose: BYL719 1 µM, cetuximab 5 µg/ml, trametinib 10 nM
Measurement: 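Replicate-mean well viability as a share of non-targeting pool control, a robust z-score without drug, and synergy scores for BYL719, cetuximab and trametinib arms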
Scale: viability z-score, knock-down alone: higher = more viable cells than non-targeting controls
Hit rule: 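Called essential if knock-down without drug gives a viability robust z-score under -3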
Meaning of the calls: active = essential when knocked down alone; inactive = no clear loss of viability alone
Shown is one part, drawn at random, of 794 reagents. Of all reagents, 13 (1.6%) are marked active. 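Calls reflect knock-down without drug only; drug synergy is judged separately, with scores above 0.15 counted as synergy.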 Not all columns of the deposit are shown. Reagent sequences are not shown. The record does not give: the amount of reagent, the time to read-out.

| Gene | viability z-score, knock-down alone | Call |
| --- | --- | --- |
| YES1 | -1.09 | inactive |
| FLT1 | 0.9 | inactive |
| CDADC1 | 0.9 | inactive |
| MAP3K6 | 0.9 | inactive |
| NIM1K | 0.388 | inactive |
| RFK | -0.0111 | inactive |
| RPS6KL1 | 0.673 | inactive |
| PXK | 0.715 | inactive |
| CKB | 0.9 | inactive |
| CSK | 0.9 | inactive |
| CASK | -1.48 | inactive |
| CRKL | -1.11 | inactive |
| SNRK | -0.735 | inactive |
| GTF2H1 | -1.35 | inactive |
| AMHR2 | -1.07 | inactive |
| CDC42BPB | 0.517 | inactive |
| GUCY2D | -2.64 | inactive |
| CDK5R1 | 0.171 | inactive |
| PIK3C2A | -1.58 | inactive |
| TYRO3 | 0.483 | inactive |

Targets above whose target name begins with G or g (2):
| Gene | viability z-score, knock-down alone | Call |
| --- | --- | --- |
| GTF2H1 | -1.35 | inactive |
| GUCY2D | -2.64 | inactive |
